From publication PMC5150538, “Structural basis of myelin-associated glycoprotein adhesion and signalling” (Nature Communications, 2016)
These are yes or no findings as the source states them, for the method shown.

How the values were obtained:
[1] = biological target: MAG1–5 I473E glycosylated (mouse) (UniProt P20917); test: SAXS; ESRF BM29, SEC buffer (150 mM NaCl, 20 mM HEPES pH 7.5), 20 °C (277 K for deglycosylated MAG1–5 N406Q), single concentration of 33-52 μM for each sample; monomer to dimer; both purified
[2] = biological target: MAG1–5 I473E glycosylated (mouse) (UniProt P20917); test: AUC; sedimentation equilibrium, SEC buffer (150 mM NaCl, 20 mM HEPES pH 7.5), 20 °C, 7,500, 14,000 and 20,000 r.p.m., global analysis of several concentrations, speeds and wavelengths; monomer to dimer; both purified
[3] = biological target: MAG1–3 glycosylated (three N-terminal Ig domains of mouse MAG) (mouse) (UniProt P20917); test: SAXS; ESRF BM29, SEC buffer (150 mM NaCl, 20 mM HEPES pH 7.5), 20 °C (277 K for deglycosylated MAG1–5 N406Q), single concentration of 33-52 μM for each sample; monomer to dimer; both purified
[4] = biological target: MAG1–3 glycosylated (three N-terminal Ig domains of mouse MAG) (mouse) (UniProt P20917); test: AUC; sedimentation equilibrium, SEC buffer (150 mM NaCl, 20 mM HEPES pH 7.5), 20 °C, 7,500, 14,000 and 20,000 r.p.m., global analysis of several concentrations, speeds and wavelengths; monomer to dimer; both purified
[5] = biological target: MAG1–5 I473E deglycosylated (mouse) (UniProt P20917); test: SAXS; ESRF BM29, SEC buffer (150 mM NaCl, 20 mM HEPES pH 7.5), 20 °C (277 K for deglycosylated MAG1–5 N406Q), single concentration of 33-52 μM for each sample; monomer to dimer; both purified
[6] = biological target: MAG1–3 deglycosylated (mouse) (UniProt P20917); test: as above

B1: MAG1–5 I473E glycosylated (domain or fragment, UniProt P20917 20-508)
chain: GHWGAWMPSTISAFEGTCVSIPCRFDFPDELRPAVVHGVWYFNSPYPKNYPPVVFKSRTQVVHESFQGRSRLLGDLGLRNCTLLLSTLSPELGGKYYFRGDLGGYNQYTFSEHSVLDIVNTPNIVVPPEVVAGTEVEVSCMVPDNCPELRPELSWLGHEGLGEPTVLGRLREDEGTWVQVSLLHFVPTREANGHRLGCQAAFPNTTLQFEGYASLDVKYPPVIVEMNSSVEAIEGSHVSLLCGADSNPPPLLTWMRDGMVLREAVAKSLYLDLEEVTPGEDGVYACLAENAYGQDNRTVELSVMYAPWKPTVNGTVVAVEGETVSILCSTQSNPDPILTIFKEKQILATVIYESQLQLELPAVTPEDDGEYWCVAENQYGQRATAFNLSVEFAPIILLESHCAAARDTVQCLCVVKSNPEPSVAFELPSRNVTVNETEREFVYSERSGLLLTSELTIRGQAQAPPRVICTSRNLYGTQSLELPFQGAHR
modifications: N-linked glycans (made in GnTI- cells)
[1]
  binding: no binding (tested: 46.2 μM)
[2]
  binding: no binding (tested: 3.6, 8.3, 41.4 and 102.8 μM)

B2: MAG1–3 glycosylated (three N-terminal Ig domains of mouse MAG) (domain or fragment, UniProt P20917 20-325)
chain: GHWGAWMPSTISAFEGTCVSIPCRFDFPDELRPAVVHGVWYFNSPYPKNYPPVVFKSRTQVVHESFQGRSRLLGDLGLRNCTLLLSTLSPELGGKYYFRGDLGGYNQYTFSEHSVLDIVNTPNIVVPPEVVAGTEVEVSCMVPDNCPELRPELSWLGHEGLGEPTVLGRLREDEGTWVQVSLLHFVPTREANGHRLGCQAAFPNTTLQFEGYASLDVKYPPVIVEMNSSVEAIEGSHVSLLCGADSNPPPLLTWMRDGMVLREAVAKSLYLDLEEVTPGEDGVYACLAENAYGQDNRTVELSVMYA
modifications: N-linked glycans (made in GnTI- cells); C-mannosylation on W22
[3]
  binding: no binding (tested: 43.7 μM)
[4]
  binding: no binding (tested: 7.2, 57.4 and 332 μM)

B3: MAG1–5 I473E deglycosylated (domain or fragment, UniProt P20917 20-508)
chain: GHWGAWMPSTISAFEGTCVSIPCRFDFPDELRPAVVHGVWYFNSPYPKNYPPVVFKSRTQVVHESFQGRSRLLGDLGLRNCTLLLSTLSPELGGKYYFRGDLGGYNQYTFSEHSVLDIVNTPNIVVPPEVVAGTEVEVSCMVPDNCPELRPELSWLGHEGLGEPTVLGRLREDEGTWVQVSLLHFVPTREANGHRLGCQAAFPNTTLQFEGYASLDVKYPPVIVEMNSSVEAIEGSHVSLLCGADSNPPPLLTWMRDGMVLREAVAKSLYLDLEEVTPGEDGVYACLAENAYGQDNRTVELSVMYAPWKPTVNGTVVAVEGETVSILCSTQSNPDPILTIFKEKQILATVIYESQLQLELPAVTPEDDGEYWCVAENQYGQRATAFNLSVEFAPIILLESHCAAARDTVQCLCVVKSNPEPSVAFELPSRNVTVNETEREFVYSERSGLLLTSELTIRGQAQAPPRVICTSRNLYGTQSLELPFQGAHR
modifications: N-linked glycans trimmed down to single N-Acetylglucosamines by Endo-Hf
[5]
  binding: no binding (tested: 45.1 μM)

B4: MAG1–3 deglycosylated (domain or fragment, UniProt P20917 20-325)
chain: GHWGAWMPSTISAFEGTCVSIPCRFDFPDELRPAVVHGVWYFNSPYPKNYPPVVFKSRTQVVHESFQGRSRLLGDLGLRNCTLLLSTLSPELGGKYYFRGDLGGYNQYTFSEHSVLDIVNTPNIVVPPEVVAGTEVEVSCMVPDNCPELRPELSWLGHEGLGEPTVLGRLREDEGTWVQVSLLHFVPTREANGHRLGCQAAFPNTTLQFEGYASLDVKYPPVIVEMNSSVEAIEGSHVSLLCGADSNPPPLLTWMRDGMVLREAVAKSLYLDLEEVTPGEDGVYACLAENAYGQDNRTVELSVMYA
modifications: N-linked glycans trimmed down to single N-Acetylglucosamines by Endo-Hf
[6]
  binding: no binding (tested: 38.2 μM)
